The results in this text go back to paper PMC12428157.

The assay addresses human epidermal growth factor receptor 2 (HER2) (human (endogenous in breast cancer specimens and SK-BR-3)) (UniProt P04626). The experiment in a line: proximity ligation; Duolink PLA in SK-BR-3 cells fixed in 10% formalin and permeabilized with 0.1% Triton X-100; anti-MARCKS (D88D11) with anti-HER2 3B5 or 2G11; mouse IgG as negative control.

These are yes or no findings as the source states them, for the method shown. Binding seen in cells or lysates may run through a third protein. Some results given as binding are weak or reduced against the parent protein; the word gives no strength.

B1: Myristoylated Alanine-Rich C Kinase Substrate (MARCKS) (protein, UniProt P29966 1-332)
chain: MGAQFSKTAAKGEAAAERPGEAAVASSPSKANGQENGHVKVNGDASPAAAESGAKEELQANGSAPAADKEEPAAAGSGAASPSAAEKGEPAAAAAPEAGASPVEKEAPAEGEAAEPGSPTAAEGEAASAASSTSSPKAEDGATPSPSNETPKKKKKRFSFKKSFKLSGFSFKKNKKEAGEGGEAEAPAAEGGKDEAAGGAAAAAAEAGAASGEQAAAPGEEAAAGEEGAAGGDPQEAKPQEAAVAPEKPPASDETKAAEEPSKVEEKKAEEAGASAAACEAPSAAGPGAPPEQEAAPAEEPAAAAASSACAAPSQEAQPECSPEAPPAEAAE
For B1, the binding entry is recorded as “binds”.
